Measured values reported in PMC7985502.

Key:
[1] = molecular target: EGFP-tagged wild-type SEC23B (human) (UniProt Q15437); test: affinity purification with mass spectrometry; anti-GFP (Abcam ab290) immunoprecipitation from lysates of stable Nthy-ori 3-1 cells, 10 mg total protein as 2 mg/ml lysates; cells untreated or treated with MG132 (10 uM, 24 h); normal rabbit IgG and Nthy-EGFP cells as negative controls; SDS-PAGE, then mass spectrometry
[2] = molecular target: EGFP-tagged p.Val594Gly mutant SEC23B (human) (UniProt Q15437); test: as above

Row | Binder | binding [1] | binding [2]
1 | RNA helicase and ATPase (UPF1) (protein, UniProt Q92900 1-1129) MSVEAYGPSSQTLTFLDTEEAELLGADTQGSEFEFTDFTLPSQTQTPPGGPGGPGGGGAGGPGGAGAGAAAGQLDAQVGPEGILQNGAVDDSVAKTSQLLAELNFEEDEEDTYYTKDLPIHACSYCGIHDPACVVYCNTSKKWFCNGRGNTSGSHIVNHLVRAKCKEVTLHKDGPLGETVLECYNCGCRNVFLLGFIPAKADSVVVLLCRQPCASQSSLKDINWDSSQWQPLIQDRCFLSWLVKIPSEQEQLRARQITAQQINKLEELWKENPSATLEDLEKPGVDEEPQHVLLRYEDAYQYQNIFGPLVKLEADYDKKLKESQTQDNITVRWDLGLNKKRIAYFTLPKTDSGNEDLVIIWLRDMRLMQGDEICLRYKGDLAPLWKGIGHVIKVPDNYGDEIAIELRSSVGAPVEVTHNFQVDFVWKSTSFDRMQSALKTFAVDETSVSGYIYHKLLGHEVEDVIIKCQLPKRFTAQGLPDLNHSQVYAVKTVLQRPLSLIQGPPGTGKTVTSATIVYHLARQGNGPVLVCAPSNIAVDQLTEKIHQTGLKVVRLCAKSREAIDSPVSFLALHNQIRNMDSMPELQKLQQLKDETGELSSADEKRYRALKRTAERELLMNADVICCTCVGAGDPRLAKMQFRSILIDESTQATEPECMVPVVLGAKQLILVGDHCQLGPVVMCKKAAKAGLSQSLFERLVVLGIRPIRLQVQYRMHPALSAFPSNIFYEGSLQNGVTAADRVKKGFDFQWPQPDKPMFFYVTQGQEEIASSGTSYLNRTEAANVEKITTKLLKAGAKPDQIGIITPYEGQRSYLVQYMQFSGSLHTKLYQEVEIASVDAFQGREKDFIILSCVRANEHQGIGFLNDPRRLNVALTRARYGVIIVGNPKALSKQPLWNHLLNYYKEQKVLVEGPLNNLRESLMQFSKPRKLVNTINPGARFMTTAMYDAREAIIPGSVYDRSSQGRPSSMYFQTHDQIGMISAGPSHVAAMNIPIPFNLVMPPMPPPGYFGQANGPAAGRGTPKGKTGRGGRQKNRFGLPGPSQTNLPNSQASQDVASQPFSQGALTQGYISMSQPSQMSQPGLSQPELSQDSYLGDEFKSQIDVALSQDSTYQGERAYQHGGVTGLSQY | binds | –
2 | SEC24A (protein, UniProt O95486 1-1093) MSQPGIPASGGAPASLQAQNGAALASGSPYTNGPVQNALLSSQESVSQGYNFQLPGSYPHPIPAKTLNPVSGQSNYGGSQGSGQTLNRPPVASNPVTPSLHSGPAPRMPLPASQNPATTPMPSSSFLPEANLPPPLNWQYNYPSTASQTNHCPRASSQPTVSGNTSLTTNHQYVSSGYPSLQNSFIKSGPSVPPLVNPPLPTTFQPGAPHGPPPAGGPPPVRALTPLTSSYRDVPQPLFNSAVNQEGITSNTNNGSMVVHSSYDEIEGGGLLATPQLTNKNPKMSRSVGYSYPSLPPGYQNTTPPGATGVPPSSLNYPSGPQAFTQTPLGANHLTTSMSGLSLQPEGLRVVNLLQERNMLPSTPLKPPVPNLHEDIQKLNCNPELFRCTLTSIPQTQALLNKAKLPLGLLLHPFKDLVQLPVVTSSTIVRCRSCRTYINPFVSFLDQRRWKCNLCYRVNDVPEEFLYNPLTRVYGEPHRRPEVQNATIEFMAPSEYMLRPPQPPVYLFVFDVSHNAVETGYLNSVCQSLLDNLDLLPGNTRTKIGFITFDSTIHFYGLQESLSQPQMLIVSDIEDVFIPMPENLLVNLNESKELVQDLLKTLPQMFTKTLETQSALGPALQAAFKLMSPTGGRMSVFQTQLPTLGVGALKPREEPNHRSSAKDIHMTPSTDFYKKLALDCSGQQVAVDLFLLSGQYSDLASLGCISRYSAGSVYYYPSYHHQHNPVQVQKLQKELQRYLTRKIGFEAVMRIRCTKGLSIHTFHGNFFVRSTDLLSLPNVNPDAGYAVQMSVEESLTDTQLVSFQSALLYTSSKGERRIRVHTLCLPVVSTLNDVFLGADVQAISGLLANMAVDRSMTASLSDARDALVNAVIDSLSAYRSSVLSNQQPGLMVPFSLRLFPLFVLALLKQKSFQTGTNARLDERIFAMCQVKNQPLVYLMLTTHPSLYRVDNLSDEGALNISDRTIPQPPILQLSVEKLSRDGAFLMDAGSVLMLWVGKNCTQNFLSQVLGVQNYASIPQPMTDLPELDTPESARIIAFISWLREQRPFFPILYVIRDESPMKANFLQNMIEDRTESALSYYEFLLHIQQQVNK | binds | binds
3 | SEC24B (protein, UniProt O95487 1-1268) MSAPAGSSHPAASARIPPKFGGAAVSGAAAPAGPGAGPAPHQQNGPAQNQMQVPSGYGLHHQNYIAPSGHYSQGPGKMTSLPLDTQCGDYYSALYTVPTQNVTPNTVNQQPGAQQLYSRGPPAPHIVGSTLGSFQGAASSASHLHTSASQPYSSFVNHYNSPAMYSASSSVASQGFPSTCGHYAMSTVSNAAYPSVSYPSLPAGDTYGQMFTSQNAPTVRPVKDNSFSGQNTAISHPSPLPPLPSQQHHQQQSLSGYSTLTWSSPGLPSTQDNLIRNHTGSLAVANNNPTITVADSLSCPVMQNVQPPKSSPVVSTVLSGSSGSSSTRTPPTANHPVEPVTSVTQPSELLQQKGVQYGEYVNNQASSAPTPLSSTSDDEEEEEEDEEAGVDSSSTTSSASPMPNSYDALEGGSYPDMLSSSASSPAPDPAPEPDPASAPAPASAPAPVVPQPSKMAKPFGYGYPTLQPGYQNATAPLISGVQPSNPVYSGFQQYPQQYPGVNQLSSSIGGLSLQSSPQPESLRPVNLTQERNILPMTPVWAPVPNLNADLKKLNCSPDSFRCTLTNIPQTQALLNKAKLPLGLLLHPFRDLTQLPVITSNTIVRCRSCRTYINPFVSFIDQRRWKCNLCYRVNDVPEEFMYNPLTRSYGEPHKRPEVQNSTVEFIASSDYMLRPPQPAVYLFVLDVSHNAVEAGYLTILCQSLLENLDKLPGDSRTRIGFMTFDSTIHFYNLQEGLSQPQMLIVSDIDDVFLPTPDSLLVNLYESKELIKDLLNALPNMFTNTRETHSALGPALQAAFKLMSPTGGRVSVFQTQLPSLGAGLLQSREDPNQRSSTKVVQHLGPATDFYKKLALDCSGQQTAVDLFLLSSQYSDLASLACMSKYSAGCIYYYPSFHYTHNPSQAEKLQKDLKRYLTRKIGFEAVMRIRCTKGLSMHTFHGNFFVRSTDLLSLANINPDAGFAVQLSIEESLTDTSLVCFQTALLYTSSKGERRIRVHTLCLPVVSSLADVYAGVDVQAAICLLANMAVDRSVSSSLSDARDALVNAVVDSLSAYGSTVSNLQHSALMAPSSLKLFPLYVLALLKQKAFRTGTSTRLDDRVYAMCQIKSQPLVHLMKMIHPNLYRIDRLTDEGAVHVNDRIVPQPPLQKLSAEKLTREGAFLMDCGSVFYIWVGKGCDNNFIEDVLGYTNFASIPQKMTHLPELDTLSSERARSFITWLRDSRPLSPILHIVKDESPAKAEFFQHLIEDRTEAAFSYYEFLLHVQQQICK | – | binds

Other lines, results leading:

Row | binding [1] | binding [2] | Binder
4 | binds | binds | SEC31A (protein, UniProt O94979 1-1220) MKLKEVDRTAMQAWSPAQNHPIYLATGTSAQQLDATFSTNASLEIFELDLSDPSLDMKSCATFSSSHRYHKLIWGPYKMDSKGDVSGVLIAGGENGNIILYDPSKIIAGDKEVVIAQNDKHTGPVRALDVNIFQTNLVASGANESEIYIWDLNNFATPMTPGAKTQPPEDISCIAWNRQVQHILASASPSGRATVWDLRKNEPIIKVSDHSNRMHCSGLAWHPDVATQMVLASEDDRLPVIQMWDLRFASSPLRVLENHARGILAIAWSMADPELLLSCGKDAKILCSNPNTGEVLYELPTNTQWCFDIQWCPRNPAVLSAASFDGRISVYSIMGGSTDGLRQKQVDKLSSSFGNLDPFGTGQPLPPLQIPQQTAQHSIVLPLKKPPKWIRRPVGASFSFGGKLVTFENVRMPSHQGAEQQQQQHHVFISQVVTEKEFLSRSDQLQQAVQSQGFINYCQKKIDASQTEFEKNVWSFLKVNFEDDSRGKYLELLGYRKEDLGKKIALALNKVDGANVALKDSDQVAQSDGEESPAAEEQLLGEHIKEEKEESEFLPSSGGTFNISVSGDIDGLITQALLTGNFESAVDLCLHDNRMADAIILAIAGGQELLARTQKKYFAKSQSKITRLITAVVMKNWKEIVESCDLKNWREALAAVLTYAKPDEFSALCDLLGTRLENEGDSLLQTQACLCYICAGNVEKLVACWTKAQDGSHPLSLQDLIEKVVILRKAVQLTQAMDTSTVGVLLAAKMSQYANLLAAQGSIAAALAFLPDNTNQPNIMQLRDRLCRAQGEPVAGHESPKIPYEKQQLPKGRPGPVAGHHQMPRVQTQQYYPHGENPPPPGFIMHGNVNPNAAGQLPTSPGHMHTQVPPYPQPQPYQPAQPYPFGTGGSAMYRPQQPVAPPTSNAYPNTPYISSASSYTGQSQLYAAQHQASSPTSSPATSFPPPPSSGASFQHGGPGAPPSSSAYALPPGTTGTLPAASELPASQRTGPQNGWNDPPALNRVPKKKKMPENFMPPVPITSPIMNPLGDPQSQMLQQQPSAPVPLSSQSSFPQPHLPGGQPFHGVQQPLGQTGMPPSFSKPNIEGAPGAPIGNTFQHVQSLPTKKITKKPIPDEHLILKTTFEDLIQRCLSSATDPQTKRKLDDASKRLEFLYDKLREQTLSPTITSGLHNIARSIETRNYSEGLTMHTHIVSTSNFSETSAFMPVLKVVLTQANKLGV
5 | binds | – | SMC1A (protein, UniProt Q14683 1-1233) MGFLKLIEIENFKSYKGRQIIGPFQRFTAIIGPNGSGKSNLMDAISFVLGEKTSNLRVKTLRDLIHGAPVGKPAANRAFVSMVYSEEGAEDRTFARVIVGGSSEYKINNKVVQLHEYSEELEKLGILIKARNFLVFQGAVESIAMKNPKERTALFEEISRSGELAQEYDKRKKEMVKAEEDTQFNYHRKKNIAAERKEAKQEKEEADRYQRLKDEVVRAQVQLQLFKLYHNEVEIEKLNKELASKNKEIEKDKKRMDKVEDELKEKKKELGKMMREQQQIEKEIKEKDSELNQKRPQYIKAKENTSHKIKKLEAAKKSLQNAQKHYKKRKGDMDELEKEMLSVEKARQEFEERMEEESQSQGRDLTLEENQVKKYHRLKEEASKRAATLAQELEKFNRDQKADQDRLDLEERKKVETEAKIKQKLREIEENQKRIEKLEEYITTSKQSLEEQKKLEGELTEEVEMAKRRIDEINKELNQVMEQLGDARIDRQESSRQQRKAEIMESIKRLYPGSVYGRLIDLCQPTQKKYQIAVTKVLGKNMDAIIVDSEKTGRDCIQYIKEQRGEPETFLPLDYLEVKPTDEKLRELKGAKLVIDVIRYEPPHIKKALQYACGNALVCDNVEDARRIAFGGHQRHKTVALDGTLFQKSGVISGGASDLKAKARRWDEKAVDKLKEKKERLTEELKEQMKAKRKEAELRQVQSQAHGLQMRLKYSQSDLEQTKTRHLALNLQEKSKLESELANFGPRINDIKRIIQSREREMKDLKEKMNQVEDEVFEEFCREIGVRNIREFEEEKVKRQNEIAKKRLEFENQKTRLGIQLDFEKNQLKEDQDKVHMWEQTVKKDENEIEKLKKEEQRHMKIIDETMAQLQDLKNQHLAKKSEVNDKNHEMEEIRKKLGGANKEMTHLQKEVTAIETKLEQKRSDRHNLLQACKMQDIKLPLSKGTMDDISQEEGSSQGEDSVSGSQRISSIYAREALIEIDYGDLCEDLKDAQAEEEIKQEMNTLQQKLNEQQSVLQRIAAPNMKAMEKLESVRDKFQETSDEFEAARKRAKKAKQAFEQIKKERFDRFNACFESVATNIDEIYKALSRNSSAQAFLGPENPEEPYLDGINYNCVAPGKRFRPMDNLSGGEKTVAALALLFAIHSYKPAPFFVLDEIDAALDNTNIGKVANYIKEQSTCNFQAIVISLKEEFYTKAESLIGVYPEQGDCVISKVLTFDLTKYPDANPNPNEQ

No constants are given. Whether binding was seen depends on the method and setting. In cells and extracts the contact can be indirect. A yes stands for co-enrichment or nearness to the bait. Other partners may have been found. For some of these results: Sequences can lack the tags named with a protein.
